Laboratory results published in ChEMBL document CHEMBL1148303, “Design and synthesis of alpha-aryloxy-alpha-methylhydrocinnamic acids: a novel class of dual peroxisome proliferator-activated receptor alpha/gamma agonists” (J Med Chem, 2004).

How the values were obtained:
[1] = target: T1, Peroxisome proliferator-activated receptor gamma (Homo sapiens, UniProt P37231)
T1 sequence (P37231 whole entry): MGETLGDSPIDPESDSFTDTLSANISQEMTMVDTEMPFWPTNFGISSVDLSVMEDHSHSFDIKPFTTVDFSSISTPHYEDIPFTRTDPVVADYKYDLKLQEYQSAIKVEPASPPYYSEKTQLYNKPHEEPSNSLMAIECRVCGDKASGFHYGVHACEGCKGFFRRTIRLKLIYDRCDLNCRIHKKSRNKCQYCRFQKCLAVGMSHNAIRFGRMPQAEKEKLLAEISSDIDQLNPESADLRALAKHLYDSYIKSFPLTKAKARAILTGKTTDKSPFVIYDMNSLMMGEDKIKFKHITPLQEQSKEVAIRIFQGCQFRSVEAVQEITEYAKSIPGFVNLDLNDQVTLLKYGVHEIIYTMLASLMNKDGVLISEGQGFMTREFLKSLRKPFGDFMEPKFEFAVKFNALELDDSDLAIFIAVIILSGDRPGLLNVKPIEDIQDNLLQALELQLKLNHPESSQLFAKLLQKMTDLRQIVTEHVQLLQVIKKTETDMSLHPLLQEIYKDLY

[2] = target: T1, Peroxisome proliferator-activated receptor gamma; remark: listed apart in the source

Structure (SMILES) | EC50 [1] [nM] | IC50 [2] [nM]
Cc1oc(-c2ccc(-c3ccccc3)cc2)nc1CCOc1ccc(CC(C)(Oc2ccccc2)C(=O)O)cc1 (centres undefined) | 7 | 169
Cc1oc(-c2cccc(-c3ccccc3)c2)nc1CCOc1ccc(CC(C)(Oc2ccccc2)C(=O)O)cc1 (centres undefined) | 6 | 71
